Laboratory results reported in patent publication US20140225048A1, “LIQUID COMPOSITION, AND COLOR-FILTER RESIST COMPOSITION, THERMAL-TRANSFER RECORDING SHEET AND INK WHICH MAKE USE OF THE LIQUID COMPOSITION” (CANON KABUSHIKI KAISHA, priority 2011, published 2014).
Some compounds share one wording; it may come from a single statement.

Experiments:
[1] = Color tone evaluation of liquid compositions bar-coated on opacity measuring sheet; conditions: for Color tone Rank: by C* when L* was 50; for Color tone L* / Color tone a* / Color tone b*: liquid composition (compound in styrene), bar coating No. 10, air-dried overnight; for Color tone C* (chroma): value of C* found when L* was 50, calculated from a* and b*
[2] = Coloring power evaluation of liquid compositions bar-coated on opacity measuring sheet; conditions: pigment quantity per unit area (5 cm×5 cm) 6.5 mg; for Coloring power C*: calculated from a* and b*

| SMILES | Color tone Rank [1] | Color tone L* [1] | Color tone a* [1] | Color tone b* [1] | Color tone C* (chroma) [1] | Coloring power Rank [2] | Coloring power C* [2] |
| --- | --- | --- | --- | --- | --- | --- | --- |
| Cn1c(=O)cc2c3c(c(Nc4ccccc4)ccc31)C(=O)c1ccccc1-2 [(1), reference compound] | C (The C* is less than 65 (the color tone is poor)) | 49.6 | 40.9 | −18.2 | 44.8 | C (The C* is less than 70 (the coloring power is low)) | 55.3 |
| Cc1ccc(Nc2ccc3c4c(cc(=O)n3C)-c3ccccc3C(=O)c24)cc1 [(2), reference compound] | C (The C* is less than 65 (the color tone is poor)) | 50.7 | 32.8 | −13.9 | 35.6 | C (The C* is less than 70 (the coloring power is low)) | 44.1 |
| Cc1cccc(Nc2ccc3c4c(cc(=O)n3C)-c3ccccc3C(=O)c24)c1 [(3), reference compound] | C (The C* is less than 65 (the color tone is poor)) | 48.2 | 24.5 | −25.2 | 35.1 | C (The C* is less than 70 (the coloring power is low)) | 45.3 |
| Cc1ccc(Nc2ccc3c4c(cc(=O)n3-c3ccc(C)cc3)-c3ccccc3C(=O)c24)cc1 [(4), reference compound] | C (The C* is less than 65 (the color tone is poor)) | 50.2 | 40.7 | −9.7 | 41.9 | C (The C* is less than 70 (the coloring power is low)) | 43.7 |
| O=C1c2ccccc2-c2cc(=O)n(C3CCCCC3)c3ccc(NC4CCCCC4)c1c23 [(5), reference compound] | A (The C* is 85 or more (the color tone is very good)) | 52.2 | 81.3 | 48.2 | 94.5 | C (The C* is less than 70 (the coloring power is low)) | 66.0 |
| CCCCC(CC)CNc1ccc2c3c(cc(=O)n2C)-c2ccccc2C(=O)c13 (centres unmarked) [Compound (1)] | B (The C* is 65 or more to less than 85 (the color tone is good)) | 49.7 | 81.9 | 12.5 | 82.8 | A (The C* is 80 or more (the coloring power is very high)) | 83.6 |
| CCCCC(CC)CNc1ccc2c3c(cc(=O)n2CC(CC)CCCC)-c2ccccc2C(=O)c13 (centres unmarked) [Compound (5)] | A (The C* is 85 or more (the color tone is very good)) | 49.9 | 84.0 | 28.5 | 88.7 | A (The C* is 80 or more (the coloring power is very high)) | 85.4 |
| CCCCOCCCNc1ccc2c3c(cc(=O)n2CCCC)-c2ccccc2C(=O)c13 [Compound (6)] | A (The C* is 85 or more (the color tone is very good)) | 50.1 | 82.0 | 37.7 | 90.3 | A (The C* is 80 or more (the coloring power is very high)) | 84.8 |
| CCCCC(CC)COCCCNc1ccc2c3c(cc(=O)n2CCCC)-c2ccccc2C(=O)c13 (centres unmarked) [Compound (7)] | A (The C* is 85 or more (the color tone is very good)) | 50.1 | 82.2 | 36.2 | 89.8 | A (The C* is 80 or more (the coloring power is very high)) | 83.2 |
| CCCCCCCCCCCCNc1ccc2c3c(cc(=O)n2CCCC)-c2ccccc2C(=O)c13 [Compound (8)] | A (The C* is 85 or more (the color tone is very good)) | 50.1 | 85.3 | 10.9 | 86.0 | A (The C* is 80 or more (the coloring power is very high)) | 84.0 |
| CCCCn1c(=O)cc2c3c(c(NCCC4=CCCCC4)ccc31)C(=O)c1ccccc1-2 [Compound (9)] | A (The C* is 85 or more (the color tone is very good)) | 49.9 | 80.3 | 31.8 | 86.4 | A (The C* is 80 or more (the coloring power is very high)) | 84.1 |
